No constants are given. Whether binding was seen depends on the method and setting. In cells and extracts the contact can be indirect. Some results given as binding are weak or reduced against the parent protein; the word gives no strength. Sequences can lack the tags named with a protein.

Chains of the proteins cited; added tags and fusions are not shown.
UniProt P41377: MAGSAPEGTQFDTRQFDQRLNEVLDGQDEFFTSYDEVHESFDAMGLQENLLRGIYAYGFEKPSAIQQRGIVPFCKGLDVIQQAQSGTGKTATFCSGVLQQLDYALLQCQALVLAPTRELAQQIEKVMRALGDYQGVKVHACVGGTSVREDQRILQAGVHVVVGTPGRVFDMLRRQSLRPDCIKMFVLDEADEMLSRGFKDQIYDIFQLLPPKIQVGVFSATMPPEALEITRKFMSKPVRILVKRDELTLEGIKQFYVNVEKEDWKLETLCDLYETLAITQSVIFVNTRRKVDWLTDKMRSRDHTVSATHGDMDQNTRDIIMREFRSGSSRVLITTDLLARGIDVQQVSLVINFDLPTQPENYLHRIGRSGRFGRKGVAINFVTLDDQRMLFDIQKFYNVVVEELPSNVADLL
UniProt P41376: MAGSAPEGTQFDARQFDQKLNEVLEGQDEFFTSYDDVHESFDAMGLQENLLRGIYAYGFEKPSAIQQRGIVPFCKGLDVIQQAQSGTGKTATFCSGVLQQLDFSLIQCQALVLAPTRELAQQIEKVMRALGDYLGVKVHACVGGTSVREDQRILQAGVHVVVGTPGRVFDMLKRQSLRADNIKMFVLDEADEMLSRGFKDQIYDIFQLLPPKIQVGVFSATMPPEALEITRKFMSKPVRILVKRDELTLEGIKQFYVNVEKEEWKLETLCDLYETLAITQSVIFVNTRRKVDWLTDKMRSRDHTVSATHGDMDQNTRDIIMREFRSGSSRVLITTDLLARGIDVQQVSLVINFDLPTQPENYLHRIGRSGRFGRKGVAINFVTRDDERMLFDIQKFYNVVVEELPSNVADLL

Assay in all cases: split reporter; BiFC in transfected Arabidopsis mesophyll protoplasts, nYFP on SMG7 and cYFP on the partner, imaged by confocal microscopy after 16 h
Test [1] has as its target T1, nYFP-SMG7^Δ702-1059 (Arabidopsis thaliana) (UniProt A9QM73).
T1 sequence: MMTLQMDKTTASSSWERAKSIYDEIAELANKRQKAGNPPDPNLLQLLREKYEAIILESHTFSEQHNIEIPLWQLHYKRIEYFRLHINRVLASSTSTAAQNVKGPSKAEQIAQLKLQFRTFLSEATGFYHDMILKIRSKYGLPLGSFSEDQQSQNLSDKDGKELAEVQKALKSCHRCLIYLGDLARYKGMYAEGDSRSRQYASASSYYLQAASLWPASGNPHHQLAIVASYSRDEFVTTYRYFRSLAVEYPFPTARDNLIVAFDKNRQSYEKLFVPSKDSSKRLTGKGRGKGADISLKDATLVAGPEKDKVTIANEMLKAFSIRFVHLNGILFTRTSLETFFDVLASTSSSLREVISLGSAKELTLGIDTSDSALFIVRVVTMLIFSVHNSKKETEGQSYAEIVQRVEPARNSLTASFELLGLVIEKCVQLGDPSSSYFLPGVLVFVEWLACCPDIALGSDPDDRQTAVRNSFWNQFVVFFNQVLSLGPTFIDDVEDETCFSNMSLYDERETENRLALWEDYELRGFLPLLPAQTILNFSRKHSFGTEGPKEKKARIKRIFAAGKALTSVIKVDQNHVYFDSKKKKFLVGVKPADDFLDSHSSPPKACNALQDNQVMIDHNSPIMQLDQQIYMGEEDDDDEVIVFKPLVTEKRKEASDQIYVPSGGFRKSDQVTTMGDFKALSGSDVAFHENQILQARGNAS

Test [2] addresses T2, nYFP-SMG7 (Arabidopsis thaliana) (UniProt A9QM73).
T2 sequence: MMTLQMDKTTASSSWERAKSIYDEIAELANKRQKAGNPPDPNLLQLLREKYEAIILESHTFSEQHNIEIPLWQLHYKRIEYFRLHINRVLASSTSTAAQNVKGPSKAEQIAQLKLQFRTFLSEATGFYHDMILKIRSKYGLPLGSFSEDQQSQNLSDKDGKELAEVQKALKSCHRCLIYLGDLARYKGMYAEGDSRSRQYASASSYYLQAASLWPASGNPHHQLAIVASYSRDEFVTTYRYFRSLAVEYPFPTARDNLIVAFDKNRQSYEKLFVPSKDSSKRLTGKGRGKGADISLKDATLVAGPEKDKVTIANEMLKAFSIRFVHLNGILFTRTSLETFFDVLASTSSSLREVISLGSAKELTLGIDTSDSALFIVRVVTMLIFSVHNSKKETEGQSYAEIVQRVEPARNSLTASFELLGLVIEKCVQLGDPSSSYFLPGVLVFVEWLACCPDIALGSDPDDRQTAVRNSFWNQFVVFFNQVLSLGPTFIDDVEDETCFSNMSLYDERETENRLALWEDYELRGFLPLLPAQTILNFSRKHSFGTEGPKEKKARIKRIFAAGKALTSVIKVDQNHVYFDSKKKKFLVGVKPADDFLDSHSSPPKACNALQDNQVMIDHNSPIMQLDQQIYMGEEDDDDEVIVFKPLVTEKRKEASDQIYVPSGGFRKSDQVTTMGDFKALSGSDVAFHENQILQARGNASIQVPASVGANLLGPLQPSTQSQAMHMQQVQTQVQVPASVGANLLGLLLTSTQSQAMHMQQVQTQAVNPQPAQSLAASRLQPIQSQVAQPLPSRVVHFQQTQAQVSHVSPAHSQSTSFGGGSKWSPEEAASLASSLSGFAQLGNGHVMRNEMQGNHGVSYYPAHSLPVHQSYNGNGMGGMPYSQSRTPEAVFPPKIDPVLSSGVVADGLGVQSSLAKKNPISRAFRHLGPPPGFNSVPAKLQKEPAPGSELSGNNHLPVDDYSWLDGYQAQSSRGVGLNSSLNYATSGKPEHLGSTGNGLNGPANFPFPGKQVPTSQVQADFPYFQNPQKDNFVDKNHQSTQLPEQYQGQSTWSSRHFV

The target in test [3] is T3, nYFP-SMG7^Δ1-268 (Arabidopsis thaliana) (UniProt A9QM73).
T3 sequence: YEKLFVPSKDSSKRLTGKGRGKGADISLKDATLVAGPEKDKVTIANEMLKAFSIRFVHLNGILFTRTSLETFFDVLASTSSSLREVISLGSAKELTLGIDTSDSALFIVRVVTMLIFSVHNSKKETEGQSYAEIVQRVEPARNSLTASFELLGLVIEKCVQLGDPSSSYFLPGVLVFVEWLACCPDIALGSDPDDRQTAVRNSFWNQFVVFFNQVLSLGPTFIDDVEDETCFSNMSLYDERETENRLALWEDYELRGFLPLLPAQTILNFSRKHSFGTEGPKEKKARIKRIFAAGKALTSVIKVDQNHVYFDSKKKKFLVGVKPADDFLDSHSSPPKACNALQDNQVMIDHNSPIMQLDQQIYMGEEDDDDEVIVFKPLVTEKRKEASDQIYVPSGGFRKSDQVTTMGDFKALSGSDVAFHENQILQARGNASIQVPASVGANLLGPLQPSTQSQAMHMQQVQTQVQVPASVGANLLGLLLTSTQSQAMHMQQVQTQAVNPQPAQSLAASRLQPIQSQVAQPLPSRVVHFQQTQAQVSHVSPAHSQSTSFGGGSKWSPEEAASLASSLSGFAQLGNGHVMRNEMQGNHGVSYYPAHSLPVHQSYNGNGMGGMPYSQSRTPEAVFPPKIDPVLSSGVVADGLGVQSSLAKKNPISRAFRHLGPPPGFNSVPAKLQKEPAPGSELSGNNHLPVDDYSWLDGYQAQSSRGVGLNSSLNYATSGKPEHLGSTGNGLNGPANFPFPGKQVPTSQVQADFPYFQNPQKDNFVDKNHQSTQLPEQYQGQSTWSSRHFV

In the case of eIF4A2-cYFP (from UniProt P41377 1-412), the binding entry was “binds” in test [1], “binds” in test [2] and “no binding” in test [3].
For the substance eIF4A1-cYFP (from UniProt P41376 1-412), the values for the binding entry in test [1], in test [2] and in test [3] were “binds”, “binds” and “no binding”, respectively.

For the origin of these results see PMC13284301.
